These results are taken from patent publication US20120277143A1.

Chains of the proteins cited; added tags and fusions are not shown. Lines headed by an entry give the natural chain unless they say otherwise; changes in a name come on top. A line that says so, or that is headed by a name, gives the form on record, which may keep a tag or linker.
cyno IL13 (Q0PW92, form named): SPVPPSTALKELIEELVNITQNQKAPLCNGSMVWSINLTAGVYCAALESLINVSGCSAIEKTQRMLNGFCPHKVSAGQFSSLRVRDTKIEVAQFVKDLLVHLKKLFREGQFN

These are yes or no findings as the source states them, for the method shown. Some entries that bind do so weakly or less than the wild type.

For the test, the target named is cyno IL13 (cynomolgus monkey) (UniProt Q0PW92). Kind of test: not restated; complex with cyno IL13 crystallized.

B1: IL13 binding protein 6G9 (designed binder)
chain: DLGKKLLEAARAGQDDEVRILMANGADVNARDSYGSTPLHLAAREGHLEIVEVLLKYGADVNAKDMIGDTPLHLAAYRGHLEIVEVLLKNGADVNASDITGETPLHLAAQIGHLEIVEVLLKYGADVNAQDKFGKTAFDISIDNGNEDLAEILQKLN
Take B1: the binding entry is on record as “binds”.
